Results are given in words; binding and its absence hold for the method and conditions named. Binding seen in cells or lysates may run through a third protein. A yes stands for co-enrichment or nearness to the bait. Other partners may have been found. Where a sequence is shown, tags or fusion partners need not be part of it.
Target: T1, Flag-Slug (human) (UniProt O43623)
T1 sequence: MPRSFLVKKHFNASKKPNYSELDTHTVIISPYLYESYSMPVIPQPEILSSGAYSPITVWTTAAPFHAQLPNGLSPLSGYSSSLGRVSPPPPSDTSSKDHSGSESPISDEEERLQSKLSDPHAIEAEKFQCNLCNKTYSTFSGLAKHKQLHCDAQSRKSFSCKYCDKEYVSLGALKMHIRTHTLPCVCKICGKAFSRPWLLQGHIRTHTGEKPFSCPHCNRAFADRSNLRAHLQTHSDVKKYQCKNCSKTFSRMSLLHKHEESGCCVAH
Experiment: affinity purification with mass spectrometry; extracts of HEK293T cells expressing Flag-Slug on anti-Flag M2 agarose, 1.5 h at 4 °C, lysis buffer 50 mM Tris-HCl pH 8.0, 0.2% NP-40, 150 mM NaCl, 2 mM EDTA; eluted with Flag peptide, SDS-PAGE, silver stain, LC-MS/MS

Protein sequences, listed by entry. Tags and fused reporters are not part of them.
UniProt O14744: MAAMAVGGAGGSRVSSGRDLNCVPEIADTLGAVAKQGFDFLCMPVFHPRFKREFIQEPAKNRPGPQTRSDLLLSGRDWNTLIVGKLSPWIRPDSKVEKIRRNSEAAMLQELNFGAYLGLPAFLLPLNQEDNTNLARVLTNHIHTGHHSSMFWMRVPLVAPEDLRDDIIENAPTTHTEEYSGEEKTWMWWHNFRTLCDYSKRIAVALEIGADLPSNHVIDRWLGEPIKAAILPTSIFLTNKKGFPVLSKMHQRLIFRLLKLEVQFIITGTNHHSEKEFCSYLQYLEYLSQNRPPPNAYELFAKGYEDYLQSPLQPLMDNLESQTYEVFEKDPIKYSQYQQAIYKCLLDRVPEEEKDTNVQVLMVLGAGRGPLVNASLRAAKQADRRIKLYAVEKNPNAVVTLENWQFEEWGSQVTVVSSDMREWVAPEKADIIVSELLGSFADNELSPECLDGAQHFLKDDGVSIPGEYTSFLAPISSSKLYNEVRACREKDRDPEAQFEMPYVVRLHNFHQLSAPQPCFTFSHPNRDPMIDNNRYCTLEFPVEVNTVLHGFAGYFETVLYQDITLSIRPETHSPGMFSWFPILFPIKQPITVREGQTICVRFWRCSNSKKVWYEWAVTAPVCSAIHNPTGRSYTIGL

- binding: binds
Substance: Protein arginine methyltransferase 5 (endogenous) (from UniProt O14744 1-637) (enzyme)

From article PMC9164399
